Some of the results follow. Small differences around the control level are noise.
These targets were tested with CN[C@@H]1C[C@H]2O[C@@](C)([C@@H]1OC)n1c3ccccc3c3c4c(c5c6ccccc6n2c5c31)C(=O)NC4 [staurosporine] (assay: log2 fold change of tryptic peptide abundance, ligand vs vehicle (limited proteolysis) (log2 ratio); higher = more trypsin-susceptible (destabilized)). Conditions: ligand concentration: 20 uM; sample: K562 cleared lysate; digestion: 4 min, 22 C (HT-PELSA RT4min, Orbitrap Astral).

Amino acid sequences for entries named in this document (tags omitted). A change or cut given only in a name is not applied to a line headed by its entry.
UniProt Q14746: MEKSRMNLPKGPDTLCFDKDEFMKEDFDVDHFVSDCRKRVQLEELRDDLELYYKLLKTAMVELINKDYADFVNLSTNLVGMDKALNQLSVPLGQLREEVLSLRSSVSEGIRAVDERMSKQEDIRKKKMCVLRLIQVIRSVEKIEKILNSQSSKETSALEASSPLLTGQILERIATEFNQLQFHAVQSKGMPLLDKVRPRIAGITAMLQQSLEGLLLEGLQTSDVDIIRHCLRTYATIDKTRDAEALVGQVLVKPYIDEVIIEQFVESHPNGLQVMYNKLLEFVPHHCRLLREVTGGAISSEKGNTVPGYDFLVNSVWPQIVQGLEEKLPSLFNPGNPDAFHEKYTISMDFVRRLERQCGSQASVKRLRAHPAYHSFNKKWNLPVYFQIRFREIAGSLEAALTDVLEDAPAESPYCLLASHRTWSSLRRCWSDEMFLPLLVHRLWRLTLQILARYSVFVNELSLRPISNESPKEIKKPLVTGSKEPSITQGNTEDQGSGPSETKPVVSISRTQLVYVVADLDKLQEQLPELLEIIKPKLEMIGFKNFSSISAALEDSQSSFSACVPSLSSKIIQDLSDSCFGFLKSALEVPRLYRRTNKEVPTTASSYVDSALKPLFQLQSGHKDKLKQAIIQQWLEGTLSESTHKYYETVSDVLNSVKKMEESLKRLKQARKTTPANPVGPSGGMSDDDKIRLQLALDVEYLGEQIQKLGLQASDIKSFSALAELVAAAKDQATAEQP
UniProt Q14152, whole entry: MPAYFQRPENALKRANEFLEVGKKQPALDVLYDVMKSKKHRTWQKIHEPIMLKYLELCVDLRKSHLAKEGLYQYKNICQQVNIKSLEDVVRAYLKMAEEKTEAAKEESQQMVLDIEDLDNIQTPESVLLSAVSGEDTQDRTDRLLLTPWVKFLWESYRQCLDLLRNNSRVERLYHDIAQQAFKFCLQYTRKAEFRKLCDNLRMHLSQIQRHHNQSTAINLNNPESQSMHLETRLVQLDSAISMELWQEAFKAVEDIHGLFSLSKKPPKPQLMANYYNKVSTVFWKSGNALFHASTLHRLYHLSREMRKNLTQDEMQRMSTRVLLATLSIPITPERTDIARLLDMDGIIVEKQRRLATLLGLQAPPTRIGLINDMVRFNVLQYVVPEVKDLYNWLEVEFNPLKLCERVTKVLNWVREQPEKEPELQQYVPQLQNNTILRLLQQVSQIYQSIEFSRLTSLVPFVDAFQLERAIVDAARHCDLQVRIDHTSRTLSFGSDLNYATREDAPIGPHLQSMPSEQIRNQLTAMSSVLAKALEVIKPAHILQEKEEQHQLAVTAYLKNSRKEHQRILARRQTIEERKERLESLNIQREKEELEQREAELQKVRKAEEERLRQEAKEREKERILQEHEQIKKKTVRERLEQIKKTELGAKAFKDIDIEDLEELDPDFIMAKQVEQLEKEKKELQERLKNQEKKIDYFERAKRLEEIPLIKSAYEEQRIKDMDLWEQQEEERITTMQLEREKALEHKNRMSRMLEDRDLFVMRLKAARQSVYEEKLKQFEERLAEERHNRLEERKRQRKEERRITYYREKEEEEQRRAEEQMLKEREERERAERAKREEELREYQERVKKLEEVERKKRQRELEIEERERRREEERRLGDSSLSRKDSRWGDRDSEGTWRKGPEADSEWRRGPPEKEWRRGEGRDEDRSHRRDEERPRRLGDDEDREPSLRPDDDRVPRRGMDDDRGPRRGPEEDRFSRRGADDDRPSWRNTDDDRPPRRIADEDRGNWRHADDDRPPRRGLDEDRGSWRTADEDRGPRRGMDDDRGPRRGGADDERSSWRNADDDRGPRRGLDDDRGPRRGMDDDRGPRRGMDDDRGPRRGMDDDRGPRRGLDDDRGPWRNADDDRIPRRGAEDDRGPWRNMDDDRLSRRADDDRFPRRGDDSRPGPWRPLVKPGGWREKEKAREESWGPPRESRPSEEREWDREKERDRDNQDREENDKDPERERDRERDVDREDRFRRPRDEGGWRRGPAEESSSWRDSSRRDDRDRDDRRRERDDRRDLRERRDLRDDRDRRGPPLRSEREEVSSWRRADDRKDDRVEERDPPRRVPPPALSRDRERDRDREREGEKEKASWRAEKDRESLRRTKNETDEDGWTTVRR
UniProt Q14116, whole entry: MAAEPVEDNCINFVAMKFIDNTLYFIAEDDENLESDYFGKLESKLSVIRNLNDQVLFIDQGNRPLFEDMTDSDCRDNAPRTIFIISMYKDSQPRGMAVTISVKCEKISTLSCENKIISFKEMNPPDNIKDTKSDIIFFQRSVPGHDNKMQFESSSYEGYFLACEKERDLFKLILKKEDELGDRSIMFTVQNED
UniProt Q15027: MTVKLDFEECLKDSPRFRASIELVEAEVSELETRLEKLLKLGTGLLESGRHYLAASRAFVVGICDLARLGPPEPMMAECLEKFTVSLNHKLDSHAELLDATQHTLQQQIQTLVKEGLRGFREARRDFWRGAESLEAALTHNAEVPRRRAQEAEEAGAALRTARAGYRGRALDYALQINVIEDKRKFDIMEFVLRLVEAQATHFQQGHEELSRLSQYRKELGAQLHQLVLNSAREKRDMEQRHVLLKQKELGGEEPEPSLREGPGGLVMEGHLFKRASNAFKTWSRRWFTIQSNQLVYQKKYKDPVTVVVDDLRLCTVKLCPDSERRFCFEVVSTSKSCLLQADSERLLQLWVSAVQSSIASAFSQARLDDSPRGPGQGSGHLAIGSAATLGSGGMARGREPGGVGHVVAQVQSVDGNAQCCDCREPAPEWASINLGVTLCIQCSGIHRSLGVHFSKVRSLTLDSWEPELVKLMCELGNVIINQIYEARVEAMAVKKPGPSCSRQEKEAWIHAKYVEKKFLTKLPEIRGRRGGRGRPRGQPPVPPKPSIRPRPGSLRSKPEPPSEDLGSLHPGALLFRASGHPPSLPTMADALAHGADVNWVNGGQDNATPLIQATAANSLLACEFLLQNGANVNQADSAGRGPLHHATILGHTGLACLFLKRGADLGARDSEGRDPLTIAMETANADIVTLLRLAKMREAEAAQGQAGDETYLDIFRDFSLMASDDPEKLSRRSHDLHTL
UniProt Q13435: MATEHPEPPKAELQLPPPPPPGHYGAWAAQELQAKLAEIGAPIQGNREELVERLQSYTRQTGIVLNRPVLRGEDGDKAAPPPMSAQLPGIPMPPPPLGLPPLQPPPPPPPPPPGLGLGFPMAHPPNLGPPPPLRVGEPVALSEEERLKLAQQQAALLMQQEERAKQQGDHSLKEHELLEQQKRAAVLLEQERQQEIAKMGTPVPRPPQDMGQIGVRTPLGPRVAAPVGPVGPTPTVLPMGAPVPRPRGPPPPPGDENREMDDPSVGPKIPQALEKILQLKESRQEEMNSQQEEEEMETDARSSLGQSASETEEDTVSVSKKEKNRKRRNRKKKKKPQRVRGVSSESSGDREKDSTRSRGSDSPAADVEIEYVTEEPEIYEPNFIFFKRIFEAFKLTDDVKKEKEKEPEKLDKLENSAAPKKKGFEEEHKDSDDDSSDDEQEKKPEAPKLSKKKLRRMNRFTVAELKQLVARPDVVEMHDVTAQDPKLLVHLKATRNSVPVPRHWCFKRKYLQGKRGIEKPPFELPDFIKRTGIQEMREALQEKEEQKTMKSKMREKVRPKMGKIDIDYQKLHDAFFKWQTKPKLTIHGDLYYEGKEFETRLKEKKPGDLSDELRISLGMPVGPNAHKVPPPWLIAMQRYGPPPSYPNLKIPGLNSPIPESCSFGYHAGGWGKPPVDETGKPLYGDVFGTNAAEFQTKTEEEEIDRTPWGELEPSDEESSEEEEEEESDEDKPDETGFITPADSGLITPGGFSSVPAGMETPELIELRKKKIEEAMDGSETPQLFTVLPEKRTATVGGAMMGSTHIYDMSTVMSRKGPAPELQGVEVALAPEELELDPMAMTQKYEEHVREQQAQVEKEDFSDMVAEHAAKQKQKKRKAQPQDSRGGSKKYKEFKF
UniProt Q14697: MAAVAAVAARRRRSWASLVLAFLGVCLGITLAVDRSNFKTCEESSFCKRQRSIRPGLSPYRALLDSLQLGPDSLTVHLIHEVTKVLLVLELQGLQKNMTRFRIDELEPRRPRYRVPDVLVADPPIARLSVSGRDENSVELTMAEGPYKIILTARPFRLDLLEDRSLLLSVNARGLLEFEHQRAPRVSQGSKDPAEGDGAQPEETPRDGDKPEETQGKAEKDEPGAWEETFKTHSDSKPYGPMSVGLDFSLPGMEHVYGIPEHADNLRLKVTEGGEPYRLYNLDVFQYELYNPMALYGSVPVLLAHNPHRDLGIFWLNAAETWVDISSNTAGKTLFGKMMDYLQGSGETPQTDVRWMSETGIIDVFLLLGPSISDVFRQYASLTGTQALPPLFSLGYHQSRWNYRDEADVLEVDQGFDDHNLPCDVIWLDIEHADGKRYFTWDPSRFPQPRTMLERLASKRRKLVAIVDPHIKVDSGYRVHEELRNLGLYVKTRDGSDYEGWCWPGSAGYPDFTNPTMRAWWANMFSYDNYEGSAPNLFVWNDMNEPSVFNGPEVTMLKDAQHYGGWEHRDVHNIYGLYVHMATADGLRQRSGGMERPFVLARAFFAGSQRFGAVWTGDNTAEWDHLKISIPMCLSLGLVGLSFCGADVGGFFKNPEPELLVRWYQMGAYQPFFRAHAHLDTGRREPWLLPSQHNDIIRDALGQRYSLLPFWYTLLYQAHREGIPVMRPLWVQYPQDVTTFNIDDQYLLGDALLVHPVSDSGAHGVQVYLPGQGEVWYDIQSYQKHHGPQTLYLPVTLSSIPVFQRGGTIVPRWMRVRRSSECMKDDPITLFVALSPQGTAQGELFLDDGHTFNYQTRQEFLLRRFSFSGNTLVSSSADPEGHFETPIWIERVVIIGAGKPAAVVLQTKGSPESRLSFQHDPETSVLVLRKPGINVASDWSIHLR
UniProt Q14149: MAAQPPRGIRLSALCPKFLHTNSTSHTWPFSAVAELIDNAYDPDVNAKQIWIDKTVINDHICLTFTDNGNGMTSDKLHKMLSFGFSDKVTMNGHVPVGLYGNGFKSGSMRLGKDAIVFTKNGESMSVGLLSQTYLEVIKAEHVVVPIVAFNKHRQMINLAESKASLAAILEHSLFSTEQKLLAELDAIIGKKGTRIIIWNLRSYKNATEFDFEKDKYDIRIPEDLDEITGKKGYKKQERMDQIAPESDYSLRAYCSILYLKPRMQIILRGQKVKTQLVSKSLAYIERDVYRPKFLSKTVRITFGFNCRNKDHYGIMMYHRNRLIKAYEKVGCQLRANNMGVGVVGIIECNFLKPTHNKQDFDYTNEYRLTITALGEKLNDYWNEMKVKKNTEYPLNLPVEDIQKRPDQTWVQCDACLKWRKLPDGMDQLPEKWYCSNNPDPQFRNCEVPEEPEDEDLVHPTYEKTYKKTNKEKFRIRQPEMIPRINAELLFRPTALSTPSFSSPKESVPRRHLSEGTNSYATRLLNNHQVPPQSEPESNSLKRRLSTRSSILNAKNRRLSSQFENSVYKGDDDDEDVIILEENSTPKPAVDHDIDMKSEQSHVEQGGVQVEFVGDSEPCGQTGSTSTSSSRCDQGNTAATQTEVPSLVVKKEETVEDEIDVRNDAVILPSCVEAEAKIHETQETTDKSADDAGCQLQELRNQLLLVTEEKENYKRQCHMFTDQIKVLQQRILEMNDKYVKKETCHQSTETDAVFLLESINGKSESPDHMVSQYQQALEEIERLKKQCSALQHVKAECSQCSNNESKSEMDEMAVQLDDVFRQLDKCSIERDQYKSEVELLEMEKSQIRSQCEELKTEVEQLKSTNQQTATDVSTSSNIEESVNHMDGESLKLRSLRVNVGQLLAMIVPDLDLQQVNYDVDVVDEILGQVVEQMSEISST

Row | Target | log2 fold change
1 | COG2 (peptide sequence: ALNQLSVPLGQLR, peptide start residue: 84) (UniProt Q14746) | -0.772
2 | EIF3A (peptide sequence: RADDDRFPR, peptide start residue: 1151) (UniProt Q14152) | 0.357
3 | IL18 (peptide sequence: TIFIISMYK, peptide start residue: 81) (UniProt Q14116) | 0.112
4 | ACAP1 (peptide sequence: AQEAEEAGAALR, peptide start residue: 149) (UniProt Q15027) | 0.375
5 | SF3B2 (peptide sequence: RGIEKPPFELPDFIK, peptide start residue: 515) (UniProt Q13435) | -0.334
6 | GANAB (peptide sequence: HHGPQTLYLPVTLSSIPVFQR, peptide start residue: 785) (UniProt Q14697) | 0.33
7 | MORC3 (peptide sequence: IPEDLDEITGKK, peptide start residue: 221) (UniProt Q14149) | -0.525
